Laboratory results reported in the supplement of paper PMC4962491.
± gives the standard deviation of the averaged measurements. Only a part is listed here, and it is no random draw. Most values lie within the scatter of the assay; repeated measurements hardly agree.

System: FaDu
Assay: mitochondrial oxygen consumption rate normalised to cell number, Z score over the library; higher = higher oxygen consumption (negative = OCR reduction)
Conditions: treatment time 24 h, assay medium: 5 mM galactose, 5 mM pyruvate, 4 mM glutamine
Description: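 Primary screen: FaDu cells were incubated 24 h with Pharmakon 1600 / TDI oncology set compounds at 2 or 10 uM. Mitochondrial-specific OCR (basal minus 2 uM antimycin A) was measured on a Seahorse XF96 in assay medium with 5 mM galactose, 5 mM pyruvate and 4 mM glutamine, then corrected for Hoechst cell number and expressed as a Z score […]. Compounds that cut cell number by >66% were excluded. Two repeats.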

SMILES	mitochondrial oxygen consumption rate normalised (2 µM)	mitochondrial oxygen consumption rate normalised (10 µM)
CCCCC/C=C/CCC(=O)N[C@H]1[C@H](Oc2c3cc4cc2Oc2ccc(cc2Cl)[C@@H](O[C@@H]2O[C@H](CO)[C@@H](O)[C@H](O)[C@H]2NC(C)=O)[C@@H]2NC(=O)[C@H](NC(=O)[C@@H]4NC(=O)[C@H]4NC(=O)C(Cc5ccc(c(Cl)c5)O3)NC(=O)[C@H](N)c3ccc(O)c(c3)Oc3cc(O)cc4c3)c3ccc(O)c(c3)-c3c(OC4O[C@H](CO)[C@@H](O)[C@H](O)[C@@H]4O)cc(O)cc3[C@@H](C(=O)O)NC2=O)O[C@H](CO)[C@@H](O)[C@@H]1O (some centres undefined) [TEICOPLANIN [A(2-1) shown]]	0.128 ± 0.35	1.41 ± 0.64
CNC[C@H](O)[C@@H](O)[C@H](O)[C@H](O)CO	0.169 ± 0.6	–
Nc1ccc(S(=O)(=O)Nc2cnc3ccccc3n2)cc1	0.447 ± 0.89	–
NCCCC(O)(P(=O)(O)O)P(=O)(O)O	0.331 ± 0.84	–
CC(C)CCCC(C)N (centres undefined)	0.1746 ± 0.0017	–
COc1cc(C2Oc3cc([C@H]4Oc5cc(O)cc(O)c5C(=O)[C@@H]4O)ccc3OC2CO)ccc1O (some centres undefined)	0.728 ± 0.82	–
CC(=O)O[C@H]1C[C@@]2(C)[C@@H](C[C@@H](O)[C@H]3[C@@]4(C)CC[C@@H](O)[C@@H](C)[C@@H]4CC[C@@]32C)/C1=C(\CCC=C(C)C)C(=O)O	-1.32 ± 1	–
CC(=O)N[C@@H](CS)C(=O)O	-0.912 ± 0.52	–
CC[C@H](C)C(=O)O[C@H]1C[C@@H](C)C=C2C=C[C@H](C)[C@H](CC[C@@H]3C[C@@H](O)CC(=O)O3)[C@H]21	-1.01 ± 0.61	–
CCN(CC)CCOC(=O)c1ccc(N)cc1	0.318 ± 0.53	–
CC(=O)O[C@H]1C[C@@H]2CC[C@@H]3[C@H](CC[C@@]4(C)[C@H]3C[C@H]([N+]3(C)CCCCC3)[C@@H]4OC(C)=O)[C@@]2(C)C[C@@H]1N1CCCCC1	-0.36 ± 0.069	–
Cc1cc(C)cc(OCC2CNC(=O)O2)c1 (centres undefined)	-0.13 ± 1.2	–
C[C@@H](O)[C@H]1C(=O)N2C(C(=O)O)=C(S[C@@H]3CN[C@H](C(=O)N(C)C)C3)[C@H](C)[C@H]12	1.13 ± 0.24	–
C[C@@H]1O[C@@H](OC[C@H]2O[C@@H](Oc3c(-c4ccc(OCCO)c(OCCO)c4)oc4cc(OCCO)cc(O)c4c3=O)[C@H](O)[C@@H](O)[C@@H]2O)[C@H](O)[C@H](O)[C@H]1O	0.345 ± 0.4	–
CCN(CC)C(=O)/C(C#N)=C/c1cc(O)c(O)c([N+](=O)[O-])c1	-0.313 ± 1.1	–
C[C@]12C=CC(=O)C=C1CC[C@H]1[C@@H]3C[C@@H](O)[C@](O)(C(=O)CO)[C@@]3(C)C[C@H](O)[C@@]12F	0.298 ± 0.43	–
CC[C@H]1OC(=O)C[C@@H](O)[C@H](C)[C@@H](O[C@@H]2O[C@H](C)[C@@H](O)[C@H](N(C)C)[C@H]2O)[C@@H](CCN2C[C@H](C)C[C@H](C)C2)C[C@@H](C)C(=O)/C=C/C(C)=C/[C@@H]1CO[C@@H]1O[C@H](C)[C@@H](O)[C@@H](OC)[C@H]1OC	-0.426 ± 0.67	0.2667 ± 0.0014
CNCCCC12CCC(c3ccccc31)c1ccccc12	0.341 ± 0.52	–
OC(c1cc(C(F)(F)F)nc2c(C(F)(F)F)cccc12)C1CCCCN1 (centres undefined)	0.469 ± 0.39	–
CCCCCC(=O)O[C@]1(C(C)=O)CC[C@H]2[C@@H]3CCC4=CC(=O)CC[C@]4(C)[C@H]3CC[C@@]21C	-0.203 ± 1.1	–
CCN1CCCC(OC(=O)C(c2ccccc2)c2ccccc2)C1 (centres undefined)	-0.175 ± 0.86	–
CCCCCNC(=N)N/N=C/c1c[nH]c2ccc(OC)cc12	0.423 ± 0.075	–
O=C(Oc1ccccc1C(=O)O)c1ccccc1O	0.0702 ± 0.61	–
O=C(O)c1ccc(S(=O)(=O)N(Cl)Cl)cc1	-1.06 ± 0.76	–
COc1c(C)c2c(c(O)c1C/C=C(\C)CCC(=O)O)C(=O)OC2	0.427 ± 0.05	–
NCCNCCNCCN	-0.16 ± 0.46	–

SMILES	mitochondrial oxygen consumption rate normalised (2 µM)	mitochondrial oxygen consumption rate normalised (10 µM)
CN(C/C=C/c1ccccc1)Cc1cccc2ccccc12	-0.368 ± 0.18	–
CC(=O)CCCCn1c(=O)c2c(ncn2C)n(C)c1=O	-0.145 ± 0.96	–
CN1C(=O)OC(C)(C)C1=O	-0.261 ± 0.081	–
C[C@H]1O[C@@H](n2cc(F)c(=O)[nH]c2=O)[C@H](O)[C@@H]1O	0.844 ± 1.4	–
O=C(O)c1cc(=O)[nH]c(=O)[nH]1	-0.929 ± 1.1	–
CC(=O)NCCCCCC(=O)O	-0.0632 ± 0.53	–
O=c1n(CCCN2CCN(c3cccc(Cl)c3)CC2)nc2ccccn12	0.899 ± 0.19	–
C=C[C@H]1CN2CC[C@H]1C[C@H]2[C@H](O)c1ccnc2ccc(OC)cc12	-0.355 ± 0.27	–
CC1(C)S[C@@H]2[C@H](NC(=O)[C@H](N)c3ccccc3)C(=O)N2[C@H]1C(=O)O	-0.0185 ± 1.1	–
Nc1cc(N2CCCCC2)nc(N)[n+]1[O-]	0.102 ± 0.15	–
C[C@]12CCC(=O)C=C1[C@@H]1C[C@@H]1[C@H]1[C@@H]3[C@@H]4C[C@@H]4[C@@]4(CCC(=O)O4)[C@@]3(C)CC[C@@H]12	0.227 ± 1.3	–
Cc1ncc([N+](=O)[O-])n1CC(C)O (centres undefined)	-0.317 ± 0.1	–
C/C=C(/C(=C/C)c1ccc(O)cc1)c1ccc(O)cc1	-0.692 ± 1.2	–
O=C(O)c1ccccc1OP(=O)(O)O	0.925 ± 1.2	–
CC1=C(/C=C/C(C)=C/C=C/C(C)=C/CO)C(C)(C)CCC1	0.62 ± 0.082	–
CC(=O)O[C@H]1C(=O)[C@@]2(C)[C@H]([C@H](OC(=O)c3ccccc3)[C@]3(O)C[C@H](OC(=O)[C@H](O)[C@@H](NC(=O)c4ccccc4)c4ccccc4)C(C)=C1C3(C)C)[C@]1(OC(C)=O)CO[C@@H]1C[C@@H]2O	0.397 ± 2	–
CC(=O)O[C@H]1C(=O)[C@@]2(C)[C@H]([C@H](OC(=O)c3ccccc3)[C@]3(O)C[C@H](OC(=O)[C@H](O)[C@@H](NC(=O)c4ccccc4)c4ccccc4)C(C)=C1C3(C)C)[C@]1(OC(C)=O)CO[C@@H]1C[C@@H]2O [Paclitaxel]	-0.0387 ± 0.15	–
C/C=C/c1ccc(OC)cc1	0.203 ± 0.99	–
O[C@H]1[C@H](O)[C@@H](O)[C@H](O)[C@@H](O)[C@H]1O	-0.544 ± 0.63	–
CCCN(CCC)CCc1cccc2c1CC(=O)N2	0.776 ± 0.65	–
COc1cccc2c1C(=O)c1c(O)c3c(c(O)c1C2=O)C[C@@](O)(C(=O)CO)C[C@@H]3O[C@H]1C[C@H](N)[C@@H](O)[C@H](C)O1	-1.99 ± 0.022	-2.82 ± 0.22
Cc1nc2ccccn2c(=O)c1CCN1CCC(C(=O)c2ccc(F)cc2)CC1	0.205 ± 0.21	–
CSc1nc2cc(Cl)c(Oc3cccc(Cl)c3Cl)cc2[nH]1	0.0964 ± 0.46	–
O=C(CCNNC(=O)c1ccncc1)NCc1ccccc1	-0.121 ± 0.53	–
CC(C)(C)CC(C)(C)c1cc(Cc2cc(C(C)(C)CC(C)(C)C)cc(-n3nc4ccccc4n3)c2O)c(O)c(-n2nc3ccccc3n2)c1	0.442 ± 0.22	–

4 consecutive entries out of the list so far, for reference:
SMILES	mitochondrial oxygen consumption rate normalised (2 µM)	mitochondrial oxygen consumption rate normalised (10 µM)
C/C=C(/C(=C/C)c1ccc(O)cc1)c1ccc(O)cc1	-0.692 ± 1.2	–
O=C(O)c1ccccc1OP(=O)(O)O	0.925 ± 1.2	–
CC1=C(/C=C/C(C)=C/C=C/C(C)=C/CO)C(C)(C)CCC1	0.62 ± 0.082	–
CC(=O)O[C@H]1C(=O)[C@@]2(C)[C@H]([C@H](OC(=O)c3ccccc3)[C@]3(O)C[C@H](OC(=O)[C@H](O)[C@@H](NC(=O)c4ccccc4)c4ccccc4)C(C)=C1C3(C)C)[C@]1(OC(C)=O)CO[C@@H]1C[C@@H]2O	0.397 ± 2	–
